# In PubChem BioAssay AID2685 (National Center for Advancing Translational Sciences (NCATS), 2010):
# Values joined by “and” are separate entries in the source; they are usually repeats but may differ in a detail not shown here. Equal entries are not always repeated. The list shows a part of the results. These are further read-outs of the screen, such as a control signal, another cell line or another target. No call is given for them. The list favours compounds with an active or inconclusive main result. Words in brackets tell the shape of the fitted curve; partial curves, single points and poor fits give uncertain potencies.
# Assay: qHTS Assay for Lipid Storage Modulators in Drosophila S3 Cells;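 on cell number change: cells counted by Cell Tracker Red CMTPX staining in the red channel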
# Details: BODIPY lipid droplet fluorescence, 18-24 h; for cell number change: measured here: cell count max response, cells fed with added oleic acid
# Procedure, shortened: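 Drosophila S3 cells got compounds at several concentrations plus oleic acid (400 uM solution). Laser-scanning cytometry with 488 nm excitation read lipid droplets at 500-530 nm and cells at 575-640 nm. Percent activity was relative to 20 uM Triacsin C.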
# [1] = measured here: cell number channel AC50, cells fed with added oleic acid
# [2] = measured here: lipid fluorescence (Fed channel) AC50, cells fed with added oleic acid
SMILES,cell number change,AC50 [1],AC50 [2]
Cc1occc1-c1nnc(SCC(=O)N2CCOCC2)n1Cc1ccco1,-14.2%,,
CCc1nc(NCCO)c(C#N)c2c1CCCC2,24.2%,,
CCOC(=O)C1CCCN(C(=O)c2cc(=O)c3ccccc3o2)C1 (stereo unspecified),-148%,,
COc1ccc(-c2cc(-c3c(O)c(OC)c4occc4c3OC)[nH]n2)cc1,23.2%,,
N#CCc1c(C#N)c(N)nc(N2CCN(Cc3ccc4c(c3)OCO4)CC2)c1C#N,12.9%,"0.0291 µM [rising, full curve, poor fit]",
Nc1cc(=O)[nH]c(SC/C=C/c2ccccc2)n1,-3.16%,,"0.00461 µM [falling, full curve, poor fit]"
COc1cccc(Nc2cc(C)nc3nc(C)nn23)c1,-1.34%,,"3.66 µM [falling, single point]"
CC(=O)c1ccc(OCCCC(=O)OCC(=O)Nc2ccc3[nH]c(=O)[nH]c3c2)cc1,5.09%,,"0.731 µM [falling, single point]"
COc1cccc2c1Oc1ncccc1N(C(=O)CCC(=O)NCc1ccc(F)cc1)C2,-19.2%,,"16.4 µM [rising, partial curve, poor fit]"
COc1ccc2c(c1)c1nnc(SCC(=O)N3CCCCC3C)nc1n2C (stereo unspecified),,"0.366 µM [rising, full curve, poor fit]",
O=C(CSc1nnnn1C1CCCCC1)N1CCCC1,4.98%,,
COc1cc(CC(=O)OCC(=O)Nc2sccc2C(N)=O)cc(OC)c1OC,5.13%,,
S=c1[nH]ncn1-c1ccccn1,,"6.51 µM [falling, single point]","3.66 µM [falling, full curve]"
CC(C)[C@H](NC(N)=O)C(=O)Nc1ccc(OCc2ccccc2)cc1,-6.96%,"0.82 µM [falling, single point]",
c1cncc(-c2nnc3n2C2(CCCCC2)Cc2ccccc2-3)c1,-21.1%,"6.51 µM [rising, single point]","6.51 µM [rising, single point]"
O=C(c1ccc(OCC2CCCO2)cc1)N1CCN(S(=O)(=O)c2cccc(F)c2)CC1 (stereo unspecified),146%,"29.1 µM [rising, single point]","3.26 µM [rising, partial curve, poor fit]"
Cc1ccc2nc(Nc3nc(CSc4nnc(C)s4)cc(=O)[nH]3)nc(C)c2c1,-27.1%,,"0.00517 µM [falling, full curve, poor fit]"
CCOC(=O)c1[nH]c(=O)[nH]c1CSc1ccccn1,21.7%,,"29.1 µM [rising, single point]"
CCOc1ccc(C2N(c3cc(Cl)ccc3OC)C(=O)C3CCCN32)cc1OC (stereo unspecified),38.5%,"7.31 µM [rising, single point]","1.16 µM [falling, single point]"
CC(=O)C[C@@H](O)CC(=O)[C@H]1OC(=O)CCCCCCc2ccccc21,20.4%,,
CN(C)S(=O)(=O)c1ccc2oc(SCC(=O)c3c(N)n(C4CC4)c(=O)[nH]c3=O)nc2c1,-11.9%,,

# Rewritten as tab-separated lines: entries from further up
SMILES	cell number change	AC50 [1]	AC50 [2]
c1cncc(-c2nnc3n2C2(CCCCC2)Cc2ccccc2-3)c1	-21.1%	6.51 µM [rising, single point]	6.51 µM [rising, single point]
O=C(c1ccc(OCC2CCCO2)cc1)N1CCN(S(=O)(=O)c2cccc(F)c2)CC1 (stereo unspecified)	146%	29.1 µM [rising, single point]	3.26 µM [rising, partial curve, poor fit]
Cc1ccc2nc(Nc3nc(CSc4nnc(C)s4)cc(=O)[nH]3)nc(C)c2c1	-27.1%		0.00517 µM [falling, full curve, poor fit]
CCOC(=O)c1[nH]c(=O)[nH]c1CSc1ccccn1	21.7%		29.1 µM [rising, single point]

# (continued)

SMILES,cell number change,AC50 [1],AC50 [2]
COc1ccc(CNCc2cc3c(cc2[N+](=O)[O-])OCO3)cc1,,,"0.58 µM [falling, single point]"
O=[N+]([O-])c1cccc(/C=C/c2ccncc2)c1,,"2.06 µM [rising, single point]","9.2 µM [rising, partial curve]"
CC(C)(C)c1ccc(C(=O)Nc2ccccc2NC(=O)c2ccco2)cc1,-16.5%,,
COCCNS(=O)(=O)c1ccc(-c2ccc(S(=O)(=O)NCCOC)cc2)cc1,-7.3%,,
CCC1Oc2ccc(C)cc2N(Cc2cccc(C)c2)C1=O (stereo unspecified),-5.08%,,
O=C(CSc1nnc2ccccn12)N1CCc2ccccc2C1,-16.7%,,
CCOc1ccc(-n2c(SCc3ccc(C#N)cc3)nnc2-c2cccnc2)cc1,4.02%,,"29.1 µM [rising, single point]"
CC(=O)Nc1ccc(Nc2nc(C)c([N+](=O)[O-])c(Nc3ccc(NC(C)=O)cc3)n2)cc1,20.6%,"1.46 µM [rising, partial curve, poor fit]","1.84 µM [rising, full curve]"
C/C(Cl)=C\Cn1c(N2CCCC2)nc2c1c(=O)[nH]c(=O)n2C,-43.4%,"8.2 µM [falling, single point]","29.1 µM [falling, single point]"
Cn1cnnc1SCC(=O)Nc1ccc(Cl)c(S(=O)(=O)N2CCOCC2)c1,-99.3%,,
C=CCn1c(C)cc(C2=NNC(=NCC)SC2)c1C,-25.3%,,"6.51 µM [rising, single point]"
Cc1ccc(C(C)C)c(OCC(=O)OCc2c(C)noc2C)c1,-21.9%,,"0.0259 µM [falling, full curve, poor fit]"
O/N=C/c1ccc(-c2ccccc2OC(F)(F)F)o1,-36.2%,"16.4 µM [falling, single point]","29.1 µM [falling, single point]"
C[n+]1cc[nH]c1SCC(=O)c1ccccc1,-37.7%,"29.1 µM [falling, single point]",
CCOC(=O)c1c(NC(=O)C2=C(C)NC(=S)NC2c2ccccc2C(F)(F)F)sc(C)c1C (stereo unspecified),1.8%,,"6.51 µM [rising, single point]"
CNC(=O)CSc1nnnn1-c1ccc(C)cc1C,,"5.8 µM [rising, single point]",
FC(F)(F)c1ccc(CSc2nccn2-c2ccccc2)cc1,-29.1%,,"2.06 µM [falling, partial curve]"
CC(=O)Nc1ccc(C(=O)COC(=O)C2CC3CCCC(C2)C3=O)cc1 (stereo unspecified),-84.5%,"18.4 µM [falling, single point]",
Cc1nc2ccc(Br)cn2c1C(=O)N/N=C\c1ccccc1Cl,11.3%,,
COC(=O)c1cccc(C23CC4(C2)[C@H](CN(Cc2ccc(C(F)(F)F)cc2)[C@@H]4c2ccccc2)C3c2ccccc2)c1 (stereo partly specified),-54.9%,"9.2 µM [falling, partial curve]","14.6 µM [falling, partial curve]"
Cc1cccc(C(=O)NC(=S)NNC(=O)COc2c(C)cccc2C)c1,25.4%,,"18.4 µM [rising, single point]"

SMILES,cell number change,AC50 [1],AC50 [2]
CSc1ccccc1NC(=O)CN(C)CC(=O)NCC(=O)Nc1ccc(F)cc1,5.26%,,"0.206 µM [falling, full curve, poor fit]"
Cc1ccc(C)c(Cn2c(CO)nc3ccccc32)c1,,,"0.146 µM [rising, full curve, poor fit]"
COc1ccc(CCNC(=O)Cn2ccc3cc(S(=O)(=O)N4CCCC4)ccc32)cc1OC,-3.36%,,"1.84 µM [rising, single point]"
CN(c1ccccc1)S(=O)(=O)c1nnc(NC(=O)COc2ccccc2)s1,11.6%,,"5.17 µM [falling, single point]"
COc1cccc(C2=CC(=O)C[C@H](c3ccc(Cl)cc3)C2)c1OC,-12.9%,,
CC1(C)S[C@@H]2[C@H](NC(=O)Cc3ccccc3)C(=O)N2[C@H]1C(=O)O,5.56% and -15.1%,"4.61 µM [rising, single point] and 820 nM [falling, full curve, poor fit]",
CCS(=O)(=O)Nc1ccc(C2=NN(C(=O)c3ccco3)C(c3cccs3)C2)cc1 (stereo unspecified),-6.12%,"1.64 µM [rising, partial curve]","4.61 µM [rising, single point]"
CC(C)CC(=O)NC(=S)Nc1sc2c(c1C(N)=O)CCC2,77.1%,"4.61 µM [falling, single point]","29.1 µM [rising, single point]"
Cc1ccc2nc(N(CCCN(C)C)C(=O)CN3C(=O)c4ccccc4C3=O)sc2c1,,,"1.46 µM [rising, full curve]"
Cc1ccccc1-c1cccc(CN2CCN(C)C(CCO)C2)c1 (stereo unspecified),2.64%,,
COc1ccc(-c2cn3cccnc3n2)cc1NC(=O)C(C)Oc1ccccc1 (stereo unspecified),-21.8%,,
COc1ccccc1-c1cc(C(=O)O)c2c(=O)n(C)c(=O)n(Cc3ccccc3)c2n1,23.9%,,"0.146 µM [rising, full curve, poor fit]"
CCN1CCN(CC(O)COCc2cc(OC)c(OC)c(OC)c2)CC1 (stereo unspecified),-46%,"14.6 µM [falling, partial curve]","13 µM [falling, partial curve]"
COc1cccc(NC(=O)CN(C)C(=O)CNC(=O)c2ccccc2F)c1,-1.39%,"1.03 µM [rising, full curve]",
COc1cccc(/C=N/NC(=O)c2ccc(CN3c4cccc5cccc(c45)S3(=O)=O)cc2)c1,-16.7%,"0.517 µM [rising, single point]","0.092 µM [rising, full curve, poor fit]"
Cc1ccc(C(=O)N(Cc2cccs2)C2CCS(=O)(=O)C2)cc1 (stereo unspecified),,,"1.64 µM [falling, partial curve, poor fit]"
O=C(Nc1ncc2c(n1)-c1ccccc1CC2)c1ccccc1,,"0.731 µM [rising, single point]","25.9 µM [rising, single point]"
Cc1ccc(-n2ncc3c(=O)n(CC(=O)N(C)C)cnc32)cc1C,-4.5%,,"0.116 µM [rising, partial curve, poor fit]"
O=C(c1ccc(S(=O)(=O)N2CCOCC2)cc1)N(c1ccc(F)cc1)C1C=CS(=O)(=O)C1 (stereo unspecified),2.5%,"1.16 µM [falling, full curve]","11.6 µM [falling, partial curve]"
